Some results were stated once for a whole list of compounds, not compound by compound. At least one compound was matched to its structure with a doubt left.
Test system: porcine liver esterase
Assay: Esterase enzymatic assay (radio-TLC cleavage)
Format: in vitro ADME
Conditions: 37 C
Protocol: The in vitro metabolism studies were performed using 25 U/mL solutions of porcine liver esterase in PBS. [^131I]HIB (1), [^131I]IPH (2), or [^131I]HIB-ether (3) (3.7 MBq each) was also dissolved in PBS with 10% DMSO. Esterase (2.5 U) was then added to each radiotracer solution, and the solution was gently shaken at 37° C.
With these hypotheses in mind, we performed systematic mechanistic studies. First, we carried out an esterase enzymatic assay. All three radiotracers, [^131I]HIB, [^131I]IPH, and [^131I]HIB-ether, were incubated separately with esterase (Sigma Aldrich, St. Louis, MO, USA) at 37° C. in a 10% DMSO/PBS mixture, and the progress of the reactions was monitored for 24 h by radio-TLC (FIG. 3A).

SMILES | cleavage percentage (4 h) [%] | cleavage percentage (24 h) [%]
CCCCCCCCCCCCCCCCOC(=O)c1ccc([131I])cc1 [[^131I]HIB] | > 80 | > 96
CCCCCCCCCCCCCCCCC(=O)Oc1ccc([131I])cc1 [[^131I]IPH, 4-[^124/131I]iodophenyl heptadecanoate] | > 80 | > 96

From patent US20240336632A1, “NOVEL COMPOUND COMPRISING ESTER GROUP AND USES THEREOF” (priority 2021, published 2024)
